No constants are given. Whether binding was seen depends on the method and setting. Binding seen in cells or lysates may run through a third protein. A yes stands for co-enrichment or nearness to the bait. Other partners may have been found. Tags and fused reporters may be left off the sequences shown.
Target: T1, FLAG-Tspan9, transfected in HEK 293T cells (human) (UniProt O75954)
T1 sequence: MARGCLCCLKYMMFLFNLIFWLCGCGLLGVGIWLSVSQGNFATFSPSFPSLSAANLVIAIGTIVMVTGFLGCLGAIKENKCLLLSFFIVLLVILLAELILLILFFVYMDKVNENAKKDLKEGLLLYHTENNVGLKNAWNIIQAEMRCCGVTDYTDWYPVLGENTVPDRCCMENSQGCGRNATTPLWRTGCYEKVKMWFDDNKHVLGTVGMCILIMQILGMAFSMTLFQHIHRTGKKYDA
Assay: affinity purification with mass spectrometry; HEK 293T cells transfected with FLAG-Tspan9 or FLAG empty vector, 48 h, immunoprecipitated with anti-FLAG M2 agarose beads, interacting proteins identified by mass spectrometry

By UniProt entry, the sequences of proteins in these tests, tags left out. Where a name states a change or a piece, a line headed by the entry shows the natural chain unless it says otherwise.
UniProt P05556: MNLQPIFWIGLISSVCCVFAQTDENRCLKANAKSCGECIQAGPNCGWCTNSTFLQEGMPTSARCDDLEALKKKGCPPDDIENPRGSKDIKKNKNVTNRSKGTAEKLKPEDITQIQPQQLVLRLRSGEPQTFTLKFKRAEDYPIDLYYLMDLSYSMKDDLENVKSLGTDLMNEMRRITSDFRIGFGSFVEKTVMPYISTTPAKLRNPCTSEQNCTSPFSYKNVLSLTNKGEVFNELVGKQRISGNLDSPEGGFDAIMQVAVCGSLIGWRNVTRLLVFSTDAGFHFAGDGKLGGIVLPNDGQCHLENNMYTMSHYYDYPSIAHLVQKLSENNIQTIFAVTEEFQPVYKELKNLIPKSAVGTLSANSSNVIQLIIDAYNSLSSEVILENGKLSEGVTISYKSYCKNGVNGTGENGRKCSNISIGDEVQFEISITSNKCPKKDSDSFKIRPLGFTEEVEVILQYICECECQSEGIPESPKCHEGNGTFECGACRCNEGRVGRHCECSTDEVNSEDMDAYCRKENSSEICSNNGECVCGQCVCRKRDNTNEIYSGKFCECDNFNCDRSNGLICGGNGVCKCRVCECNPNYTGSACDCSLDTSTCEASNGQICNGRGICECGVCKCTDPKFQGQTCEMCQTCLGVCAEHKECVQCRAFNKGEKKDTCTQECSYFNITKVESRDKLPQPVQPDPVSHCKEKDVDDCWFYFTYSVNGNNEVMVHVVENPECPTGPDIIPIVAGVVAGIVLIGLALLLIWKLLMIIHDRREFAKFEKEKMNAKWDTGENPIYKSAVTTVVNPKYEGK

Substance: integrin β1, endogenous in HEK 293T cells (from UniProt P05556 21-798) (receptor)
- binding: binds

From PMC8906905
